Assay results from patent publication US4990531A, “Derivatives of 1-arylsulphonyl-2-pyrrolidinone and their use as medicaments” (Roussel Uclaf, priority 1988, dated 1991).

Test system: contractions induced by histamine, isolated ileum
Experiment: Antagonism of histamine-induced contractions, isolated guinea-pig ileum
Details: histamine 1×10^-5 M; contact time one minute; read-out: Antagonism with various agents (IC50): Istam.
Experimental: The interaction of the compounds with various receptors was evaluated on the isolated ileum of a guinea-pig according to the following method.
Segments of the ileum of guinea-pigs of 2.5-3 cm were washed and immediately suspended in a bath containing 10 ml of Tyrode's solution at 37° C. and aerated with a mixture of oxygen (95%) and carbon dioxide (5%). After a stabilization period of at least 30 minutes contractions were recorded, while the preparation was maintained under constant tension of 1 g, by means of a detector connected to a polygraph. The agonistic action was evaluated by leaving the compound in contact with the isolated tissue for a period necessary to show the maximum […]; then it was washed with the Tyrode's solution. The following dose was added only after the preparation had returned to its base line. Arecoline was used as a reference product. The antagonist action was evaluated on the contractions induced by acetylcholine (1×10^-6 M), histamine (1×10^-5 M), serotonine (1×10^-6 M) and barium chloride (2×10^-4 M). […] The contact time before adding the agonist was one minute.
For each compound the does response curves are obtained with 4 to 6 different concentrations and 3 to 5 independent tests. The agonist activity is expressed by pD2 (negative logarithm of the dose which produces 50% of the maximum effect).

## CN(C)CCOC(c1ccccc1)c1ccccc1 [Diphenyldramine, reference compound]
  IC50: 830 nM
